# From PubChem BioAssay AID493014 (National Center for Advancing Translational Sciences (NCATS), 2011)
# Some of the results follow. The main result of the screen is listed elsewhere. These columns were measured beside it and carry no call. The list favours compounds with an active or inconclusive main result. Words in brackets tell the shape of the fitted curve; partial curves, single points and poor fits give uncertain potencies.
# Test: qHTS Assay to Find Inhibitors of Chronic Active B-Cell Receptor Signaling
# Conditions: ABC-DLBCL IkBa-CBG/CBR reporter, luminescence ratio (green luciferase fused to IkBa over red control in TMD8 lymphoma cells), 4 h
# In short: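 Doxycycline induced both beetle luciferases in TMD8 lymphoma cells; IKK-driven degradation limits the IkappaBalpha-fused green signal, while red luminescence normalises for cell number and nonspecific effects. Compounds tested up to 46 uM, 4 hrs.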
# [1] = measured here: CBR red luminescence, cell number
# [2] = measured here: IkBa-CBG green luminescence
Structure (SMILES),AC50 [1],AC50 [2]
CCC(=O)N1CCc2cc(Br)cc(S(=O)(=O)NCC3CCCN3CC)c21 (stereo unspecified),"0.00461 µM [rising, full curve, poor fit]",
O=c1c2ccccc2sc2nc(C3CCCCC3)n(Cc3ccco3)c(=O)c12,"0.164 µM [falling, full curve, poor fit]",
CCOC(=O)C1=C(C)C/C(=N\NC(=O)c2ccccc2O)CC1,"2 µM [falling, full curve]",
CCCCOC(=O)c1sc2nc(C)cc(C)c2c1N,"1.12 µM [rising, partial curve, poor fit]",
O=C(CN1C(=O)NC2(CCCC2)C1=O)Nc1ccc(F)cc1,"29.1 µM [falling, single point]","32.6 µM [rising, partial curve, poor fit]"
COc1ccc(S(=O)(=O)N(CCc2ccccc2)CC(=O)O)cc1Cl,"1.64 µM [rising, partial curve, poor fit]",
CCOc1ccc(NC(=O)/C(C#N)=C/c2ccc(N3CCCC3)c(C)c2)cc1,"0.411 µM [rising, partial curve, poor fit]",
Cc1ccc(NC(=O)c2cncc(Br)c2)nc1,"35.5 µM [falling, single point]",
O=C(CCCNc1ccccc1)N/N=C/c1cccs1,"22.4 µM [falling, partial curve, poor fit]",
Cc1ccc(N2CCN(C(=S)c3ccc(-c4ccccc4[N+](=O)[O-])o3)CC2)cc1,"35.5 µM [falling, single point]","17.8 µM [rising, partial curve, poor fit]"
COc1cc(C(=O)N[C@H](C(=O)NC2CCCc3ccccc32)C(C)C)cc(OC)c1OC (stereo partly specified),"9.2 µM [rising, partial curve, poor fit]",
CCCN(CC(=O)Nc1ccccc1C)C(=O)CCl,"4.47 µM [falling, full curve, poor fit]",
COC(=O)c1ccccc1NC(=O)CN1CCC(NC(=O)c2ccccc2C)CC1,"0.794 µM [rising, full curve, poor fit]",
COc1cc(NC(=O)COC(=O)CNC(=O)C2CCCCC2)cc(OC)c1,"11.6 µM [rising, partial curve, poor fit]",
Cc1nnc(NC(=O)CSc2nnc(CCc3nc4ccccc4[nH]3)n2C)s1,"5.01 µM [falling, single point]",
CSc1ccc(C2N=C(c3ccccc3)NO2)cc1 (stereo unspecified),"12.6 µM [falling, single point]",
COc1ccc(-n2c(SC(CN3CCCCC3)CN3CCCC3=O)nc3ccccc3c2=O)cc1 (stereo unspecified),"35.5 µM [falling, single point]",
O=C(CN1c2cccc3cccc(c23)S1(=O)=O)N1CCOCC1,"0.891 µM [rising, full curve, poor fit]",
O=C(O)c1ccc2ncsc2c1,"10 µM [falling, partial curve]",
Cc1cc(C)c(C(=O)OCC(=O)NCc2cccs2)c(C)c1,"35.5 µM [falling, single point]",
CC(C)c1ccc(NC(=O)C2=CC=CN3CCS(=O)(=O)N=C23)cc1,"0.731 µM [rising, full curve]",

Structure (SMILES),AC50 [1],AC50 [2]
O=C(CSc1nnc(CNC(=O)c2ccco2)o1)Nc1nc2ccccc2s1,"15.8 µM [falling, single point]","35.5 µM [falling, partial curve, poor fit]"
O=C1CCN(S(=O)(=O)c2cc(C(F)(F)F)ccc2Cl)CC1,"16.4 µM [falling, partial curve, poor fit]",
CC(C)C[C@H](NC(=O)c1nc[nH]c1C(=O)NCCNC(=O)OC(C)(C)C)C(=O)CNCCNC(=O)c1[nH]cnc1C(=O)N[C@@H](C)C(=O)OC(C)(C)C,"0.13 µM [rising, full curve, poor fit]",
COc1ccc(CNC(=O)Nc2cc(C)cc(C)c2)cc1,"28.2 µM [falling, single point]",
O=C(NCC1CCCO1)c1ccccc1-c1nc(-c2ccccc2Cl)no1 (stereo unspecified),"0.562 µM [rising, full curve, poor fit]",
Nc1ccc(S(=O)(=O)Nc2ccc(S(N)(=O)=O)cc2)cc1,"0.116 µM [falling, full curve, poor fit]",
Cc1ccc(S(=O)(=O)c2ccc(Oc3ccccc3)cc2)cc1,"28.2 µM [falling, single point]","35.5 µM [rising, partial curve, poor fit]"
O=C(CSc1nnnn1-c1ccccc1)Nc1ncc2c(n1)CC(c1ccco1)CC2=O (stereo unspecified),"25.1 µM [falling, single point]",
NC(=O)CCCc1nc(-c2ccccc2)no1,"8.91 µM [rising, partial curve]",
CCOC(=O)N1CCN(C(=O)c2cccn3c(=O)c4c5c(sc4nc23)CCCC5)CC1,"6.31 µM [rising, full curve]",
CC1Cc2cc(/C(O)=C3\C(=O)C(=O)N(CCN(C)C)C3c3ccccc3F)ccc2O1 (stereo unspecified),"3.66 µM [rising, single point]",
CNC(=O)c1ccc2nc(NC(C)=O)sc2c1,"18.4 µM [rising, single point]",
COc1cc(C(=O)NCCc2nc3ccccc3n2C)cc(OC)c1OC,"23.1 µM [falling, single point]",
Nc1[nH]nc2nc(N3CCOCC3)nc(-c3ccccc3)c12,"22.4 µM [falling, single point]",
COc1ccc2oc(-c3ccc(C)c(NC(=O)CSc4ccc(Cl)cc4)c3)nc2c1,"39.8 µM [rising, partial curve, poor fit]",
Cc1nnc(SCC(=O)Nc2ccc3c(c2)OCCO3)n1N,"1.16 µM [rising, full curve, poor fit]",
CCOc1cc(C2C(C(=O)OC)=C(C)NC3=C2C(=O)c2ccccc23)c(Br)cc1O (stereo unspecified),"11.2 µM [falling, single point]",
COCC(=O)N1CCC(Oc2ccc(C(=O)N3C[C@@H]4CCC[C@H]3C4)cc2)CC1,"3.55 µM [falling, single point]",
Cn1nc(C(=O)OCC(=O)Nc2cc(Cl)ccc2C#N)c2ccccc2c1=O,"23.1 µM [rising, partial curve, poor fit]",
C/C(=N\OC(=O)c1ccc(C)cc1)c1sc(C)nc1C,"25.9 µM [rising, single point]",
CCN(CC)S(=O)(=O)c1ccc(NC(=O)c2cnccn2)cc1,"22.4 µM [rising, single point]",

Structure (SMILES),AC50 [1],AC50 [2]
CC(=O)N(c1nnc(-c2ccc(C)cc2)s1)C1CCCC1,"5.01 µM [rising, full curve, poor fit]",
COc1cc(C(=O)NCCNc2nc3ccc(C)cc3cc2C#N)cc(OC)c1OC,"2.51 µM [rising, full curve, poor fit]",
CN(C)c1ccc(N2C(=NC(=O)c3ccccc3)SC3CS(=O)(=O)CC32)cc1 (stereo unspecified),"22.4 µM [falling, single point]",
O=c1[nH]c(CSc2nnc(Cc3ccccc3)o2)nc2ccccc12,"0.562 µM [falling, full curve]",
CCCCCCCn1c(NC(=O)CC)nc2ccccc21,"35.5 µM [rising, single point]","22.4 µM [falling, single point]"
O=C(NC(=S)Nc1ccc2oc(-c3ccncc3)nc2c1)c1ccccc1F,"4.47 µM [falling, partial curve]",
CC(C)CCn1c(SCC(=O)N2CC(=O)Nc3ccccc32)nc2scc(-c3cccs3)c2c1=O,"14.6 µM [rising, partial curve, poor fit]",
O=C(COc1ccccc1)Nc1cc(S(=O)(=O)N2CCOCC2)ccc1N1CCCC1,"29.1 µM [falling, single point]",
C/C(=N\Nc1ccc([N+](=O)[O-])cc1)c1cc2ccccc2o1,"2.24 µM [rising, partial curve, poor fit]",
O=C1[C@H]2[C@@H](c3ccc(F)cc3)N3C(=O)N(c4ccccc4)C(=O)[C@@]3(Cc3ccccc3)[C@H]2C(=O)N1C1CCCCC1,"0.58 µM [rising, full curve, poor fit]",
Cc1cc(N2CCOCC2)nc2ccc(NC(=O)CCC(=O)N3CCN(c4cccc(C(F)(F)F)c4)CC3)cc12,"35.5 µM [falling, single point]",
CC1(C)CC(=O)C=C(/C=C/c2ccccc2)C1,"0.326 µM [rising, full curve, poor fit]",
Clc1ccc(-c2n[nH]c3c2CCC3)cc1Cl,"0.1 µM [rising, full curve, poor fit]",
CCNc1nc(NCC)n2c(SC(C(=O)Nc3cc(C)ccc3OC)c3ccccc3)nnc2n1 (stereo unspecified),"18.4 µM [falling, single point]",
CC12CCC(C(=O)Nc3cccc(Cl)c3Cl)([C@H](Br)C1=O)C2(C)C (stereo partly specified),"35.5 µM [rising, single point]",
CC(C1CC2CCC1C2)n1c(-c2cccs2)n[nH]c1=S (stereo unspecified),"35.5 µM [rising, single point]",
O=C(c1ccccc1)C1Oc2ccccc2C2CC(c3cccs3)=NN12 (stereo unspecified),"20 µM [rising, single point]",
CCCCNC(=O)CSc1cc(=O)n(C)c2ccccc12,"16.4 µM [rising, partial curve, poor fit]",
COc1cc2c(cc1OC)CN(C(=O)CC1CC3CCC1C3)CC2 (stereo unspecified),"2.51 µM [rising, full curve]",

# Copied from the list:
# Entry for `Clc1ccc(-c2n[nH]c3c2CCC3)cc1Cl` under AC50 [1]: 0.1 µM [rising, full curve, poor fit]
# Entry for `CC(C)CCn1c(SCC(=O)N2CC(=O)Nc3ccccc32)nc2scc(-c3cccs3)c2c1=O` under AC50 [1]: 14.6 µM [rising, partial curve, poor fit]
